{"source": "PubChem BioAssay AID686938 (Drosophila RNAi Screening Center, 2013)", "purpose": "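Fly genes required for calcium entry once internal stores are emptied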 (primary screen)", "cells": "Drosophila S2R+ cells", "reagents": "long dsRNA against Drosophila genes, about 0.25 µg dsRNA per well, roughly 10,000 cells", "time to read-out": "5 days of knock-down before the calcium assay", "conditions": "thapsigargin (SERCA pump blocker) to empty calcium stores; entry signal taken 4 min after adding it", "read-out": "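Duplicate raw fluo-4 intensities per well from a plate reader, at rest and four minutes after thapsigargin emptied calcium stores; entry-to-rest ratio filled for only some wells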", "scale": "calcium entry signal: higher = stronger calcium signal after store depletion; resting calcium signal: higher = higher resting calcium signal", "units": "calcium entry signal in fluorescence units; resting calcium signal in fluorescence units", "hit rule": "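Hit if the duplicate-averaged plate z-score for entry over resting signal is under −3; wells with weak total dye signal (Fmax z < −2) or more than 5 off-targets removed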", "calls": "active = strongly reduced calcium entry; inactive = no strong reduction", "note": "The deposit covers about 23,000 reagents; this is an unselected part of those that have a named target and a result. Of all reagents, 75 (0.33%) were called active. 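Raw plate signals without normalisation; calls rest on plate z-scores that were not deposited; ratio present for only 364 wells.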 Entries without a mark were called inactive. Reagent sequences are not shown. Not stated in the record: the dose of the treatment."}
{"gene": "Lip3 (Lipase 3)", "dsRNA": "DRSC16727", "calcium entry signal, replicate 1": 2.59e7, "calcium entry signal, replicate 2": 2.74e7, "resting calcium signal, replicate 1": 1.39e7, "resting calcium signal, replicate 2": 1.42e7}
{"gene": "KLHL18 (Kelch like family member 18)", "dsRNA": "DRSC15496", "calcium entry signal, replicate 1": 2.88e7, "calcium entry signal, replicate 2": 4.09e7, "resting calcium signal, replicate 1": 1.35e7, "resting calcium signal, replicate 2": 1.71e7}
{"gene": "CG16741", "dsRNA": "DRSC06622", "calcium entry signal, replicate 1": 3.45e7, "calcium entry signal, replicate 2": 5.02e7, "resting calcium signal, replicate 1": 1.59e7, "resting calcium signal, replicate 2": 2.44e7}
{"gene": "Grx3 (Glutaredoxin 3)", "dsRNA": "DRSC02966", "calcium entry signal, replicate 1": 3.80e7, "resting calcium signal, replicate 1": 2.07e7}
{"gene": "PIG-L (Phosphatidylinositol glycan anchor biosynthesis class L)", "dsRNA": "DRSC15577", "calcium entry signal, replicate 1": 3.14e7, "calcium entry signal, replicate 2": 3.15e7, "resting calcium signal, replicate 1": 3.79e7, "resting calcium signal, replicate 2": 1.45e7}
{"gene": "vg (vestigial)", "dsRNA": "DRSC07715", "calcium entry signal, replicate 1": 3.63e7, "calcium entry signal, replicate 2": 6.61e7, "resting calcium signal, replicate 1": 1.80e7, "resting calcium signal, replicate 2": 3.00e7}
{"gene": "vg (vestigial)", "dsRNA": "DRSC22669", "calcium entry signal, replicate 1": 3.72e7, "calcium entry signal, replicate 2": 3.19e7, "resting calcium signal, replicate 1": 1.75e7, "resting calcium signal, replicate 2": 1.38e7}

Just “calcium entry signal, replicate 2” (2 entries from above):
vg (vestigial) [DRSC07715] = 6.61e7
vg (vestigial) [DRSC22669] = 3.19e7

The results go on.
{"gene": "CG5665", "dsRNA": "DRSC11783", "calcium entry signal, replicate 1": 2.38e7, "calcium entry signal, replicate 2": 4.28e7, "resting calcium signal, replicate 1": 1.10e7, "resting calcium signal, replicate 2": 1.64e7}
{"gene": "ND1 (retired record)", "dsRNA": "DRSC21273", "calcium entry signal, replicate 1": 3.60e7, "calcium entry signal, replicate 2": 4.63e7, "resting calcium signal, replicate 1": 2.07e7, "resting calcium signal, replicate 2": 1.73e7}
{"gene": "Mcm6 (Minichromosome maintenance 6)", "dsRNA": "DRSC18680", "calcium entry signal, replicate 1": 3.58e7, "calcium entry signal, replicate 2": 3.98e7, "resting calcium signal, replicate 1": 1.76e7, "resting calcium signal, replicate 2": 1.79e7}
{"gene": "CG17059", "dsRNA": "DRSC06654", "calcium entry signal, replicate 1": 2.44e7, "calcium entry signal, replicate 2": 4.04e7, "resting calcium signal, replicate 1": 1.30e7, "resting calcium signal, replicate 2": 1.66e7}
{"gene": "CG5890", "dsRNA": "DRSC15909", "calcium entry signal, replicate 1": 4.80e7, "calcium entry signal, replicate 2": 7.18e7, "resting calcium signal, replicate 1": 2.43e7, "resting calcium signal, replicate 2": 3.13e7}
{"gene": "CG6830", "dsRNA": "DRSC16124", "calcium entry signal, replicate 1": 3.69e7, "calcium entry signal, replicate 2": 4.18e7, "resting calcium signal, replicate 1": 1.79e7, "resting calcium signal, replicate 2": 2.26e7}
{"gene": "CG33340", "dsRNA": "DRSC14615", "calcium entry signal, replicate 1": 4.49e7, "calcium entry signal, replicate 2": 4.75e7, "resting calcium signal, replicate 1": 2.17e7, "resting calcium signal, replicate 2": 1.73e7}
